# According to publication PMC10807196:
# Amino acid sequences for entries named in this document (tags omitted). Residues count along the entry.
# UniProt Q12864, residues 23-832: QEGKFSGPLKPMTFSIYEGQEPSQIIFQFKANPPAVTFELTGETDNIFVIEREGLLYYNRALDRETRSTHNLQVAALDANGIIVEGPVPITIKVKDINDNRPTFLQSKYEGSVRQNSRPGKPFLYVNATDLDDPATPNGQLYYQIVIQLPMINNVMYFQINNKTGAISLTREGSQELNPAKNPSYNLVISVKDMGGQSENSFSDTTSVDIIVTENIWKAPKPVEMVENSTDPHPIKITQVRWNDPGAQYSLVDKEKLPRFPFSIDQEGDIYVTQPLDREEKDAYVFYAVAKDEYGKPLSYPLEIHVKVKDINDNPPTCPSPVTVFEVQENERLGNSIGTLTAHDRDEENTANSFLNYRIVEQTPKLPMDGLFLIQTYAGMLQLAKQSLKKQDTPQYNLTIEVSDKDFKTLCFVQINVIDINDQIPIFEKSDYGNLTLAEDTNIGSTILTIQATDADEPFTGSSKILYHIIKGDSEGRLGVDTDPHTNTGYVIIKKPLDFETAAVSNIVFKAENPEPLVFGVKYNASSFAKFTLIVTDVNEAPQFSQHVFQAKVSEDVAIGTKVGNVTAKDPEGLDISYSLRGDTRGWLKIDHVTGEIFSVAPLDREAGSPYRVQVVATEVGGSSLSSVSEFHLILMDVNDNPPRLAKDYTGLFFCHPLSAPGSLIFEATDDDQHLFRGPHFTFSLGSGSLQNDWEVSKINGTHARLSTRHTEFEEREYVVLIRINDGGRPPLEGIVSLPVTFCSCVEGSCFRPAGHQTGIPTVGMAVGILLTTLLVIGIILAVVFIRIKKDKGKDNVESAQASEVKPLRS
# UniProt P35222: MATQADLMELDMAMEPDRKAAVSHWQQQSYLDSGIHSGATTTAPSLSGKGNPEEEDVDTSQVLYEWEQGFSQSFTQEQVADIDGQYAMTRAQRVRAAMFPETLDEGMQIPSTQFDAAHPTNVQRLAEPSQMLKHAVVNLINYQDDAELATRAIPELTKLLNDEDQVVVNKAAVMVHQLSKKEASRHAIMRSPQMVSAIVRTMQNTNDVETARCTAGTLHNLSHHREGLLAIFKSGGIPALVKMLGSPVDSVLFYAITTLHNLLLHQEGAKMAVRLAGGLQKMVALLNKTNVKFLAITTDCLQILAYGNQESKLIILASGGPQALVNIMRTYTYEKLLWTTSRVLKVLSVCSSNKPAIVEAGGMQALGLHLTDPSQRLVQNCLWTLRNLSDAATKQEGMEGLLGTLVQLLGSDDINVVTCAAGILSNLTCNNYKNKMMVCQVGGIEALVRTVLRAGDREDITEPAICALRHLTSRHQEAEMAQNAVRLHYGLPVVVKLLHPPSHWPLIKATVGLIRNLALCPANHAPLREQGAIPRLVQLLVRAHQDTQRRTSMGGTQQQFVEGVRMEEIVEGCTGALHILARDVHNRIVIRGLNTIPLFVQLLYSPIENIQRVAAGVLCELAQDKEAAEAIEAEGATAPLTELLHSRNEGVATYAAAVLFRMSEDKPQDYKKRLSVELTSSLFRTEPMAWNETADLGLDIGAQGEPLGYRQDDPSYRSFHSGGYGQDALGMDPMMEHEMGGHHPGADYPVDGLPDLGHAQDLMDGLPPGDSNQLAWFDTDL
# No constants are given. Whether binding was seen depends on the method and setting. Binding seen in cells or lysates may run through a third protein. Some entries that bind do so weakly or less than the wild type.
# T1: desmocollin-1 (DSC1) (human (endogenous in RKO, HT-29, KM12SM and SW620)) (UniProt Q08554)
# T1 sequence: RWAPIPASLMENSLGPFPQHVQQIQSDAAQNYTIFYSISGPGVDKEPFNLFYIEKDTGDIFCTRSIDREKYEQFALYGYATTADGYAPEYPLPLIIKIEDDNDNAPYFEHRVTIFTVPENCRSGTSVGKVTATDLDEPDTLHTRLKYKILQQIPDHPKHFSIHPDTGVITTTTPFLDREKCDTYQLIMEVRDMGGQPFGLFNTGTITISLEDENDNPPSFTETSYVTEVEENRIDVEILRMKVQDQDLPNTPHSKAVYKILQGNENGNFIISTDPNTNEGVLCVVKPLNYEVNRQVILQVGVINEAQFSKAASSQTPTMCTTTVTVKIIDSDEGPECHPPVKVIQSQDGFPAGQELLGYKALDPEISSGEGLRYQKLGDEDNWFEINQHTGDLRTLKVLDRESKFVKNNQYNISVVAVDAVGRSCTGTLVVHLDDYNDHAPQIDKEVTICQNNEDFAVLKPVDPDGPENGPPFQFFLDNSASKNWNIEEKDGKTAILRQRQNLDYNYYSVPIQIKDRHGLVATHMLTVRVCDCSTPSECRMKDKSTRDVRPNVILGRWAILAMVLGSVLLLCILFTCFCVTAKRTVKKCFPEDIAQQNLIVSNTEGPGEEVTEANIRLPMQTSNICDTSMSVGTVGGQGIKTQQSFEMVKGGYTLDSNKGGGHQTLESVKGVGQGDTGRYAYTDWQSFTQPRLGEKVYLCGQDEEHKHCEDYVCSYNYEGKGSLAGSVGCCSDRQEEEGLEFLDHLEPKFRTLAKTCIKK
# Legend:
# [1] = biological target: Cadherin-17 (CDH17), endogenous (human (endogenous in KM12SM and SW620)) (UniProt Q12864); assay: co-IP; KM12SM and SW620 lysates (1% Igepal, 100 mM NaCl, 2 mM MgCl2, 10% glycerol, 50 mM Tris-HCl), 1 mg lysate with Protein G-sepharose and anti-CDH17 or control antibodies for 16 h; Western blot; also after control, α2 integrin or DSC1 siRNA
# [2] = biological target: Cadherin-17 (CDH17), endogenous (human (endogenous in KM12SM and SW620)) (UniProt Q12864); assay: co-IP; KM12SM and SW620 lysates immunoprecipitated with control or anti-CDH17 antibodies in the presence or absence of the CDH17-NLV peptide (10 μg/mL); Western blot for DSC1 and CDH17
# [3] = biological target: Cadherin-17 (CDH17), endogenous (human (endogenous in KM12SM and SW620)) (UniProt Q12864); assay: co-IP; KM12SM and SW620 lysates (1% Igepal, 100 mM NaCl, 2 mM MgCl2, 10% glycerol, 50 mM Tris-HCl), 1 mg lysate with Protein G-sepharose and anti-CDH17 or control antibodies for 16 h; Western blot; also after control, α2 integrin or DSC1 siRNA; remark: listed apart in the source
# [4] = biological target: T1, desmocollin-1 (DSC1) (human (endogenous in RKO, HT-29, KM12SM and SW620)); assay: as above
# [5] = biological target: T1, desmocollin-1 (DSC1) (human (endogenous in RKO, HT-29, KM12SM and SW620)); assay: co-IP; competition: synthetic CDH17-NLV peptide (10 μg/mL) added to the anti-CDH17 immunoprecipitation of KM12SM and SW620 lysates; Western blot for DSC1 and CDH17; only the binder purified
molecule,measurement,setting,value
β-catenin (from UniProt P35222 1-781),binding,[1],binds
"desmocollin-1 (DSC1) (protein, UniProt Q08554 135-894) RWAPIPASLMENSLGPFPQHVQQIQSDAAQNYTIFYSISGPGVDKEPFNLFYIEKDTGDIFCTRSIDREKYEQFALYGYATTADGYAPEYPLPLIIKIEDDNDNAPYFEHRVTIFTVPENCRSGTSVGKVTATDLDEPDTLHTRLKYKILQQIPDHPKHFSIHPDTGVITTTTPFLDREKCDTYQLIMEVRDMGGQPFGLFNTGTITISLEDENDNPPSFTETSYVTEVEENRIDVEILRMKVQDQDLPNTPHSKAVYKILQGNENGNFIISTDPNTNEGVLCVVKPLNYEVNRQVILQVGVINEAQFSKAASSQTPTMCTTTVTVKIIDSDEGPECHPPVKVIQSQDGFPAGQELLGYKALDPEISSGEGLRYQKLGDEDNWFEINQHTGDLRTLKVLDRESKFVKNNQYNISVVAVDAVGRSCTGTLVVHLDDYNDHAPQIDKEVTICQNNEDFAVLKPVDPDGPENGPPFQFFLDNSASKNWNIEEKDGKTAILRQRQNLDYNYYSVPIQIKDRHGLVATHMLTVRVCDCSTPSECRMKDKSTRDVRPNVILGRWAILAMVLGSVLLLCILFTCFCVTAKRTVKKCFPEDIAQQNLIVSNTEGPGEEVTEANIRLPMQTSNICDTSMSVGTVGGQGIKTQQSFEMVKGGYTLDSNKGGGHQTLESVKGVGQGDTGRYAYTDWQSFTQPRLGEKVYLCGQDEEHKHCEDYVCSYNYEGKGSLAGSVGCCSDRQEEEGLEFLDHLEPKFRTLAKTCIKK",binding,[2],binds
same,binding,[3],binds
"p120-catenin (protein, UniProt O60716 1-968) MDDSEVESTASILASVKEQEAQFEKLTRALEEERRHVSAQLERVRVSPQDANPLMANGTLTRRHQNGRFVGDADLERQKFSDLKLNGPQDHSHLLYSTIPRMQEPGQIVETYTEEDPEGAMSVVSVETSDDGTTRRTETTVKKVVKTVTTRTVQPVAMGPDGLPVDASSVSNNYIQTLGRDFRKNGNGGPGPYVGQAGTATLPRNFHYPPDGYSRHYEDGYPGGSDNYGSLSRVTRIEERYRPSMEGYRAPSRQDVYGPQPQVRVGGSSVDLHRFHPEPYGLEDDQRSMGYDDLDYGMMSDYGTARRTGTPSDPRRRLRSYEDMIGEEVPSDQYYWAPLAQHERGSLASLDSLRKGGPPPPNWRQPELPEVIAMLGFRLDAVKSNAAAYLQHLCYRNDKVKTDVRKLKGIPVLVGLLDHPKKEVHLGACGALKNISFGRDQDNKIAIKNCDGVPALVRLLRKARDMDLTEVITGTLWNLSSHDSIKMEIVDHALHALTDEVIIPHSGWEREPNEDCKPRHIEWESVLTNTAGCLRNVSSERSEARRKLRECDGLVDALIFIVQAEIGQKDSDSKLVENCVCLLRNLSYQVHREIPQAERYQEAAPNVANNTGPHAASCFGAKKGKDEWFSRGKKPIEDPANDTVDFPKRTSPARGYELLFQPEVVRIYISLLKESKTPAILEASAGAIQNLCAGRWTYGRYIRSALRQEKALSAIADLLTNEHERVVKAASGALRNLAVDARNKELIGKHAIPNLVKNLPGGQQNSSWNFSEDTVISILNTINEVIAENLEAAKKLRETQGIEKLVLINKSGNRSEKEVRAAALVLQTIWGYKELRKPLEKEGWKKSDFQVNLNNASRSQSSHSYDDSTLPLIDRNQKSDKKPDREEIQMSNMGSNTKSLDNNYSTPNERGDHNRTLDRSGDLGDMEPLKGTTPLMQDEGQESLEEELDVLVLDDEGGQVSYPSMQKI",binding,[4],binds
LNPAKNPSYNLVISVKDM [synthetic CDH17 peptide …],binding,[5],binds
